These are yes or no findings as the source states them, for the method shown. In cells and extracts the contact can be indirect. A result given as binding can be weak or reduced; the word gives no strength. Where a sequence is shown, tags or fusion partners need not be part of it.

This passage reports binding results from article PMC9512921.

The target in this experiment is T1, Flag-USP15 WT (UniProt Q9Y4E8).
T1 sequence: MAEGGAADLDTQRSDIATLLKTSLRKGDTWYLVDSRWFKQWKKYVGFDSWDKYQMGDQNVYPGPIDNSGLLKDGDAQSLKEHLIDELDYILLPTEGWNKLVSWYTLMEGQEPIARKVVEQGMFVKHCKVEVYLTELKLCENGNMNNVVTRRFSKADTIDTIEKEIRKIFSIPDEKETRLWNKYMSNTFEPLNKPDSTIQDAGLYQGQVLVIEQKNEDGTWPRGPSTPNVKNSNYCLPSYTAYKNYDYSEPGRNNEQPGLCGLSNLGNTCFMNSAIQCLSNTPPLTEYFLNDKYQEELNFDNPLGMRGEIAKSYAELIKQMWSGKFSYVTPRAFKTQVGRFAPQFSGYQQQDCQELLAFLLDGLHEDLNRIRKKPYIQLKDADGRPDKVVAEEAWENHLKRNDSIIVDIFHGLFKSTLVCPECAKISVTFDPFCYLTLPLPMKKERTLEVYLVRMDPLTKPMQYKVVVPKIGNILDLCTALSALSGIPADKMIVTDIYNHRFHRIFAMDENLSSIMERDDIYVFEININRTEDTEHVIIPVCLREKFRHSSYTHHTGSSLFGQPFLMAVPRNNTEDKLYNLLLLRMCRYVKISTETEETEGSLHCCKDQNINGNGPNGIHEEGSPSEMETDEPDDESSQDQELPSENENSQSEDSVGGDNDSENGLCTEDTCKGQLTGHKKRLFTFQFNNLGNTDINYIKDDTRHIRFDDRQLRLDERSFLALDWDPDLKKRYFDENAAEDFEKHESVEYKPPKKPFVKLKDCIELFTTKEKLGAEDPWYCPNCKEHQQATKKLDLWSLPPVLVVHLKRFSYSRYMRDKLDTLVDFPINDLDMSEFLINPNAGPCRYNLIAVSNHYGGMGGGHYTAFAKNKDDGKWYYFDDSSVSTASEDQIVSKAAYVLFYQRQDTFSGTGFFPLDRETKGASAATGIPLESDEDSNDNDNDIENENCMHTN
The experiment in a line: co-IP; HEK293 cells co-transfected with Myc-p66Shc (or its mutants) and Flag-USP15 (WT or C269A); IP with anti-Flag or anti-Myc antibody; western blot. On the technique in general: A western blot detects proteins with antibodies after separation by electrophoresis.

For the substance “Myc-p66Shc truncated mutant, SH2 domain (from UniProt P29353-1) (domain or fragment)”, the binding entry is “binds”.
